Drawing on publication PMC5640651, “Interfering with the high-affinity interaction between wheat amylase trypsin inhibitor CM3 and toll-like receptor 4: in silico and biosensor-based studies” (Scientific Reports, 2017), this text covers binding for one molecule.

Sequences of proteins named here, by UniProt entry; tags and fusion partners are left off. Residues count along the entry.
UniProt O00206, residues 24-631: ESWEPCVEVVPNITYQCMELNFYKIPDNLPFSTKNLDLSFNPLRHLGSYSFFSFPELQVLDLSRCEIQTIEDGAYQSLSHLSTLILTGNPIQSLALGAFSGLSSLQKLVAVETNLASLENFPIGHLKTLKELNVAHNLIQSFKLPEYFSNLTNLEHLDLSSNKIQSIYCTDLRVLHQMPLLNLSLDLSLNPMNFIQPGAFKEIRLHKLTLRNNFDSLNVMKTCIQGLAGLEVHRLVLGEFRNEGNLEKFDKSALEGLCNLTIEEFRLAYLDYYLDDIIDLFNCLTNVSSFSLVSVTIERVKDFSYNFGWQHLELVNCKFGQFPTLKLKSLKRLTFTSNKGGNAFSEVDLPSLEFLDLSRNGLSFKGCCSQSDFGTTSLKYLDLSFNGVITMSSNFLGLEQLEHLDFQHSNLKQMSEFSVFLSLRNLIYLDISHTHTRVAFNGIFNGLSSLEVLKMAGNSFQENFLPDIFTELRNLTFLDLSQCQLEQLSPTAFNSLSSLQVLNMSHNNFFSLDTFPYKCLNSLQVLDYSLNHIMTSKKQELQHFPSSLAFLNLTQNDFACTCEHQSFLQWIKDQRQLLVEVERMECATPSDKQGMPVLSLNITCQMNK

These are yes or no findings as the source states them, for the method shown. Some entries that bind do so weakly or less than the wild type.

Test [1] has as its target T1, human toll-like receptor 4, His-tagged (human, UniProt O00206 24-631).
T1 construct: toll-like receptor 4, human; called the extracellular domain of TLR4 in the results; described as a 100 kDa protein with isoelectric point 5.88; Coupled covalently to the carboxylate cuvette by EDC/NHS 'via the N-terminus of the poly-His tail'; also called TLR4; TLR4-His; source: pEF-BOS TLR4 plasmid, transfected in HCT-116 cell line (author contributions)
The test is described as follows: SPR; IAsys plus resonant mirror biosensor, competitive binding: immobilised TLR4 pre-saturated with 100 μM peptide, then ATI added; both purified. (In general: Surface plasmon resonance follows binding to a sensor surface in real time, without labels.)

For test [2], the target named is T1, human toll-like receptor 4, His-tagged. The test is described as follows: SPR; IAsys plus resonant mirror biosensor; TLR4-His immobilised; pH varied in the range 6-8; data not shown; both purified.

B1: wheat amylase trypsin inhibitor CM3 (natural protein, UniProt P17314 26-168, looked up)
chain: SGSCVPGVAFRTNLLPHCRDYVLQQTCGTFTPGSKLPEWMTSASIYSPGKPYLAKLYCCQELAEISQQCRCEALRYFIALPVPSQPVDPRSGNVGESGLIDLPGCPREMQWDFVRLLVAPGQCNLATIHNVRYCPAVEQPLWI
notes: also called ATI; wheat ATI CM3
B1: the binding result in test [1] and in test [2] was “binds” in each case.
